# Measured values published in PMC5996148.
# Protein sequences, listed by entry. Tags and fused reporters are not part of them. Lines headed by an entry give the natural chain unless they say otherwise; changes in a name come on top.
# UniProt Q9BRS8: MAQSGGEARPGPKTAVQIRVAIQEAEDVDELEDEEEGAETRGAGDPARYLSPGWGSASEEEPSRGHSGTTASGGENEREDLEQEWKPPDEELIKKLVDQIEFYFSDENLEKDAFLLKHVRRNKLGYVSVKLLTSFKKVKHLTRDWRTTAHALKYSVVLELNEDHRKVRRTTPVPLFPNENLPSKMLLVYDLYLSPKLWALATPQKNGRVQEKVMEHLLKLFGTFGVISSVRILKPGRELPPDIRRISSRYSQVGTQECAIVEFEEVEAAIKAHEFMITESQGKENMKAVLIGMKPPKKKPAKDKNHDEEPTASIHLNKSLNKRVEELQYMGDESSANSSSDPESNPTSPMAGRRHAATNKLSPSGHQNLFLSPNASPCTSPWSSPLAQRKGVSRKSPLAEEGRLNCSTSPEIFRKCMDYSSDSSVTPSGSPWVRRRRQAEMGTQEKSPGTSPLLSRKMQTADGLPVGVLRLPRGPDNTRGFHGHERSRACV
# This is one part of the list. For some assays here: The source does not settle which construct or isoform was used.
# Assays:
# Assay in all cases: protein microarray (ProtoArray v5.0), streptavidin-Alexa Fluor 647
# Details in all cases: 3'-biotin; 20 mM Tris (pH 7.5), 5 mM MgCl2, 100 mM KCl, 0.1% Tween-20, A/T-rich and random oligonucleotide blockers; temperature not stated; high values mean tight binding
# [1] = test system: KPNA4 (human)
# [2] = test system: KRAS (human)
# [3] = test system: KRT33B (human)
# [4] = test system: KRT36 (human)
# [5] = test system: KRT8 (human)
# [6] = test system: Kallikrein-1 (human)
# [7] = test system: Kallikrein-5 (human)
# [8] = test system: Kelch-like ECH-associated protein 1 (human)
# [9] = test system: Keratinocyte growth factor (human)
# [10] = test system: Kidney-associated antigen 1 (human)
# [11] = test system: Kinesin light chain 1 (human)
# [12] = test system: Kinesin light chain 3 (human)
# [13] = test system: Kinesin-like protein KIF26B (human)
# [14] = test system: L-asparaginase (human)
# [15] = test system: LACRT (human)
# [16] = test system: LACTB2 (human)
# [17] = test system: LAIR2 (human)
# [18] = test system: LANCL2 (human)
# [19] = target: LARP1 (UniProt Q6PKG0)
# [20] = target: LARP6 (UniProt Q9BRS8)
sequence,measurement,setting,value
GGGAGGCTGAGGCAGG [G4-1 biotinylated (PQS2)],binding signal,[1],-0.319 z-score
same,binding signal,[2],-0.349 z-score
same,binding signal,[3],-0.328 z-score
same,binding signal,[4],-0.317 z-score
same,binding signal,[5],-0.355 z-score
same,binding signal,[6],-0.311 z-score
same,binding signal,[7],-0.32 z-score
same,binding signal,[8],-0.344 z-score
same,binding signal,[9],-0.336 z-score
same,binding signal,[10],-0.337 z-score
same,binding signal,[11],-0.337 z-score
same,binding signal,[12],-0.345 z-score
same,binding signal,[13],-0.314 z-score
same,binding signal,[14],-0.335 z-score
same,binding signal,[15],-0.304 z-score
same,binding signal,[16],-0.353 z-score
same,binding signal,[17],-0.327 z-score
same,binding signal,[18],-0.316 z-score
same,binding signal,[19],4.49 z-score
same,binding signal,[20],3.99 z-score

# Taken from the results shown for reference:
sequence,measurement,setting,value
GGGAGGCTGAGGCAGG [G4-1 biotinylated (PQS2)],binding signal,[5],-0.355 z-score
same,binding signal,[6],-0.311 z-score
